This experiment can be described thus: qHTS Assay for Modulators of Lamin A Splicing. The settings on record: HeLa LMNA splicing GFP/RFP minigene ratio, 48 h. Summed up: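 S3 HeLa stable clones carrying a lamin A-EGFP splicing minigene plus DsRed2 were seeded at 600 cells/well in Opti-MEM with 2% FBS, pin-dosed and incubated 48 h at 37°C. Acumen cytometry (488 nm) gave the GFP/RFP total-intensity ratio.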

Where [1] appears, read: measured here: GFP splicing reporter channel.
Where [2] appears, read: measured here: RFP viability control channel.

“And” between values parts separate entries of the source, which are not always exact repeats. Equal entries are not always repeated. This is one part of the list. The main result of the screen is listed elsewhere. These columns were measured beside it and carry no call. The list favours compounds with an active or inconclusive main result. The note in brackets gives the kind of curve behind each potency; many fits are weak.

With `COc1ccc(-c2cn3nc(N4CCC(C(=O)Nc5cc(Cl)ccc5C)CC4)sc3n2)cc1`, the AC50 under setting [1] is 0.0891 µM [falling, full curve, poor fit]. On to `O=C(Cn1cnc2c(cnn2-c2ccc(Cl)cc2)c1=O)NCCc1ccccc1`, for which the AC50 under setting [2] is 3.16 µM [rising, single point]. Take `CC(=O)N1CCN(CC(=O)Nc2ccccc2Sc2ccc(Cl)cc2)CC1`: under setting [2], the AC50 is 35.5 µM [rising, single point].

For the compound `CCNC(=O)CC1C(=O)N(c2ccc(F)cc2)C(=O)N1CCc1sccc1C` (configuration not stated), the concentration at half-maximal activity (AC50) under setting [1] was 1.26 µM [rising, single point].

Turning to `Cc1ccc(C)c(NC(=S)N(Cc2cccc(Br)c2)CC2CCC(C(=O)O)CC2)c1` (configuration not stated), under setting [2], the half-maximal activity concentration (AC50) was 4.47 µM [rising, partial curve]. On to `CN(C)C(=O)c1cc2cc(Br)ccc2s1`, for which the AC50 reads like this: under setting [1], 5.62 µM [rising, partial curve]; under setting [2], 5.01 µM [rising, single point]. Turning to `CC(C)n1nc(C(=O)Nc2ccccc2N2CCOCC2)c2ccccc2c1=O`, the half-maximal activity concentration (AC50) under setting [1] was 3.98 µM [rising, full curve, poor fit].

For `S=C(NCc1ccccc1)Nc1cccc(Cl)c1`, the half-maximal activity concentration (AC50) under setting [2] is 35.5 µM [rising, single point].

Regarding `Cc1ccc(NC(=O)Nc2ccccc2CC[N+](=O)[O-])cc1`, under setting [1], the AC50 was 0.01 µM [falling, full curve].

`Cc1cc(C)cc(NC(=O)c2ccc([N+](=O)[O-])o2)c1`: the concentration at half-maximal activity (AC50) under setting [2] is 35.5 µM [falling, single point]. In the case of `CC1CCN(c2ncnc3c2c(-c2ccccc2)cn3-c2ccc(Br)cc2)CC1`, under setting [1], the AC50 was 0.316 µM [falling, partial curve, poor fit]. Turning to `Cn1c(NC(=O)c2ccccc2)c(-c2cccs2)c(=O)c2ccccc21`, the concentration at half-maximal activity (AC50) under setting [2] is 15.8 µM [rising, single point]. Regarding `O=C(Nc1ccc(Oc2ccc3ccccc3c2)cc1)c1ccco1`, the AC50 under setting [1] was 25.1 µM [rising, single point] and the half-maximal activity concentration (AC50) under setting [2] was 25.1 µM [rising, single point]. As to `CCc1ccc(-n2c(=O)c3c(C)c(C(=O)N(C)C)sc3n(CC(=O)NCC3CCCO3)c2=O)cc1` (configuration not stated), the concentration at half-maximal activity (AC50) under setting [1] is 17.8 µM [rising, single point]. In the case of `CC(NC(=O)OCc1ccccc1)C(=O)N1CC(O)CC1C(=O)O` (configuration not stated), the concentration at half-maximal activity (AC50) was 11.2 µM [falling, partial curve, poor fit] under setting [1] and 12.6 µM [falling, partial curve] under setting [2]. For `COc1ccc(C(=O)/C=C/C(=O)N(Cc2ccc3c(c2)OCO3)C(C(=O)NC2CCCCC2)c2ccncc2)c(O)c1` (configuration not stated), the half-maximal activity concentration (AC50) under setting [1] is 35.5 µM [falling, single point]. As for `COc1ccc(NCc2nc3ccccc3n2CCOc2ccc(C)cc2)cc1`, the AC50 under setting [2] was 10 µM [rising, partial curve].

Regarding `C=CCn1c(=O)c2c(nc3n2CCN3c2cccc(Cl)c2C)n(C)c1=O`, the AC50 reads like this: under setting [1], 11.2 µM [rising, single point]; under setting [2], 14.1 µM [rising, single point]. In the case of `CC(C)n1cc(NC(=O)c2cc(-c3ccccc3)on2)cn1`, under setting [2], the AC50 was 3.55 µM [rising, single point]. `Nc1ccc(Oc2ccc3nc(-c4ccccc4)c(-c4ccccc4)nc3c2)cc1`: the AC50 under setting [1] was 12.6 µM [falling, single point] and the AC50 under setting [2] is 11.2 µM [falling, partial curve]. On to `CC1CCN(C(=O)Nc2cccc(NC(=O)N3CCC(C)CC3)c2)CC1`, for which the AC50 under setting [2] was 35.5 µM [rising, single point]. `O=C1CCc2ccc(NC(=O)C3CC3)cc2N1`: the AC50 under setting [1] is 0.708 µM [rising, single point].

Consider `COc1ccccc1NC(=O)C1=C(C)NC2=C(C(=O)CC(c3ccc(OC)c(OC)c3)C2)C1c1coc2ccccc2c1=O` (configuration not stated), for which the AC50 under setting [1] was 12.6 µM [rising, single point] and the AC50 under setting [2] is 22.4 µM [rising, single point]. Consider `COc1ccccc1-c1cncnc1NCCN1CCOCC1`, for which the AC50 is 12.6 µM [falling, single point] under setting [1] and 20 µM [falling, partial curve] under setting [2]. With `CC(=O)N1CCCc2cc(S(=O)(=O)NCCC3=CCCCC3)ccc21`, under setting [2], the AC50 was 7.94 µM [rising, partial curve].

On to `CN1CCN(c2ccc(NC(=O)c3ccc4c(c3)OCCO4)cc2Cl)CC1`, for which the AC50 under setting [1] was 4.47 µM [falling, full curve]. `COc1cc(CN2CCNC(=O)C2CC(=O)NCCC2=CCCCC2)cc(OC)c1` (configuration not stated): the AC50 runs as follows: under setting [1], 0.0447 µM [rising, full curve, poor fit]; under setting [2], 0.0355 µM [rising, full curve, poor fit].

Regarding `CC(C)CCNC(=O)NC(=O)COC(=O)CNC(=O)C1CCCCC1`, under setting [2], the AC50 is 0.00316 µM [falling, full curve]. The same measure, in the same setting: the figure for `CN(C)c1nc2ccccc2c(N)c1-c1ccccc1` is 3.98 µM [rising, full curve]. On to `COc1ccc(-n2nc(C(=O)NCC(=O)NCc3ccc(F)cc3)c3ccccc3c2=O)c(OC)c1`, for which the AC50 under setting [1] is 35.5 µM [falling, single point] and the half-maximal activity concentration (AC50) under setting [2] is 35.5 µM [falling, single point]. Regarding `O=C(NC1=NCCS1)C1CC(=O)N(c2ccc(Cl)cc2)C1` (configuration not stated), the AC50 under setting [1] was 0.0891 µM [falling, full curve, poor fit]. For `Cc1ccc(Cl)cc1N1CCN(C(=S)NCCc2ccccc2)CC1`, under setting [2], the concentration at half-maximal activity (AC50) is 10 µM [rising, partial curve]. `CCCc1nn(C)c(C(=O)Nc2cccc3ccccc23)c1Cl`: the AC50 by setting is: under setting [1], 15.8 µM [rising, partial curve]; under setting [2], 20 µM [rising, partial curve].

As for `O=c1cc(N2CCCCC2)c(-c2ccccc2)nn1Cc1ccc(Cl)cc1Cl`, the AC50 was 35.5 µM [falling, single point] under setting [1] and 22.4 µM [falling, partial curve] under setting [2]. Regarding `Cc1ccc(-n2ncc3c(N4CCC(C)CC4)ncnc32)cc1C`, the AC50 under setting [1] was 0.0224 µM [falling, full curve, poor fit]. With `COc1ccc(Cn2nnnc2C(c2cccs2)N2CCSCC2)cc1` (configuration not stated), under setting [2], the concentration at half-maximal activity (AC50) is 31.6 µM [rising, single point]. In the case of `CCOC(=O)Cc1csc(NC(=O)CCN2C(=O)c3ccccc3C2=O)n1`, the AC50 under setting [2] is 35.5 µM [rising, single point]. In the case of `O=C(NCC1CCCO1)C(c1cccs1)N(Cc1cccs1)C(=O)c1ccc(-c2ccccc2)[nH]1` (configuration not stated), the half-maximal activity concentration (AC50) by setting is: under setting [1], 22.4 µM [rising, single point]; under setting [2], 35.5 µM [rising, single point]. On to `COc1ccc(CCN(Cc2cc3cc(C)c(C)cc3nc2Cl)C(=O)C2CC2)cc1`, for which the AC50 under setting [2] was 5.62 µM [rising, single point]. For the compound `C[C@]12CC[C@@H]3c4ccc(O)cc4CC[C@H]3[C@@H]1CC[C@@H]2O`, the AC50 reads like this: under setting [1], 3.16 µM [rising, full curve] and 3.98 µM [falling, full curve, poor fit] and 3.16 µM [rising, single point]; under setting [2], 4.47 µM [rising, single point] and 12.6 µM [falling, partial curve] and 6.31 µM [falling, partial curve, poor fit].

As to `COC(=O)c1sc(N)c(C(=O)OC)c1CSc1nnc(-c2ccccc2Cl)n1C`, the AC50 under setting [2] is 2.51 µM [rising, partial curve, poor fit]. Same read-out and setting: in the case of `CC1CCCCN1C(=O)CSc1nc2ccccc2nc1Cc1ccc(Cl)cc1` (configuration not stated) it was 35.5 µM [rising, single point]; in that of `CCN(CC)S(=O)(=O)c1ccc(NCC2COc3ccccc3O2)c([N+](=O)[O-])c1` (configuration not stated), 14.1 µM [rising, single point]; in that of `Clc1ccc2c(c1)C(C1=NCCN1)c1ccccc1CS2` (configuration not stated), 0.631 µM [rising, full curve, poor fit]. On the same count and under the same terms, the figure for `CC(OC(=O)Cc1coc2ccc3ccccc3c12)C(=O)Nc1ncc(Cl)cc1Cl` (configuration not stated) is 2.24 µM [rising, partial curve, poor fit]. Take `O=C(CC1S/C(=N/N=C/c2ccco2)NC1=O)Nc1ccccc1` (configuration not stated): under setting [1], the AC50 was 0.794 µM [rising, single point]. Consider `CCOc1cccc(CNCCO)c1OCc1ccc(Cl)cc1Cl`, for which the concentration at half-maximal activity (AC50) under setting [2] is 7.94 µM [rising, partial curve, poor fit]. Same read-out and setting: in the case of `CC(C(=O)Nc1ccccc1Oc1ccccc1)c1ccccc1` (configuration not stated) it was 2.24 µM [rising, full curve, poor fit]; in that of `COc1ccc(-c2cc(C(=O)N3CCN(c4ccccc4)CC3)c3ccccc3n2)cc1`, 10 µM [rising, partial curve, poor fit]. As for `CC(=O)Nc1ccc(S(=O)(=O)NCCSCc2ccccc2Cl)cc1`, the AC50 is 7.08 µM [rising, partial curve, poor fit] under setting [1] and 8.91 µM [rising, partial curve] under setting [2].

`O=C(c1ccccc1F)N1CCN(c2ccc([N+](=O)[O-])c3cccnc23)CC1`: the AC50 was 10 µM [falling, partial curve, poor fit] under setting [1] and 7.08 µM [falling, full curve, poor fit] under setting [2]. In the case of `Cc1ccc(C(C)C)c(OCC(=O)Nc2nc3c(s2)CCCC3)c1`, under setting [2], the concentration at half-maximal activity (AC50) is 5.62 µM [rising, single point]. Same read-out and setting: in the case of `CCCNNC(=O)C(O)(c1ccccc1)c1ccccc1` it was 0.0708 µM [rising, partial curve, poor fit]. Same read-out and setting: in the case of `CC(C)c1ccc(NC(=S)NCc2cccs2)cc1` it was 35.5 µM [rising, single point].

Consider `COc1ccc(-n2cc(C(=O)NCc3ccc(Cl)cc3)c3ccccc3c2=O)cc1`, for which the half-maximal activity concentration (AC50) under setting [1] was 4.47 µM [rising, partial curve, poor fit] and the AC50 under setting [2] was 2.82 µM [rising, full curve].

Turning to `CCC(=O)Nc1cccc(-n2nnnc2SCC(=O)c2ccc(C)c(C)c2)c1`, the AC50 under setting [2] was 14.1 µM [rising, partial curve, poor fit].

(Values after PubChem BioAssay AID1487 (National Center for Advancing Translational Sciences (NCATS), 2009).)
